# Experimental data: the supplement of paper PMC12067093, “Discovery and optimisation of a covalent ligand for TRIM25 and its application to targeted protein ubiquitination” (Chemical Science, 2025)
# Sequences of proteins named here, by UniProt entry; tags and fusion partners are left off. A change or cut given only in a name is not applied to a line headed by its entry.
# UniProt P49023, whole entry, looked up: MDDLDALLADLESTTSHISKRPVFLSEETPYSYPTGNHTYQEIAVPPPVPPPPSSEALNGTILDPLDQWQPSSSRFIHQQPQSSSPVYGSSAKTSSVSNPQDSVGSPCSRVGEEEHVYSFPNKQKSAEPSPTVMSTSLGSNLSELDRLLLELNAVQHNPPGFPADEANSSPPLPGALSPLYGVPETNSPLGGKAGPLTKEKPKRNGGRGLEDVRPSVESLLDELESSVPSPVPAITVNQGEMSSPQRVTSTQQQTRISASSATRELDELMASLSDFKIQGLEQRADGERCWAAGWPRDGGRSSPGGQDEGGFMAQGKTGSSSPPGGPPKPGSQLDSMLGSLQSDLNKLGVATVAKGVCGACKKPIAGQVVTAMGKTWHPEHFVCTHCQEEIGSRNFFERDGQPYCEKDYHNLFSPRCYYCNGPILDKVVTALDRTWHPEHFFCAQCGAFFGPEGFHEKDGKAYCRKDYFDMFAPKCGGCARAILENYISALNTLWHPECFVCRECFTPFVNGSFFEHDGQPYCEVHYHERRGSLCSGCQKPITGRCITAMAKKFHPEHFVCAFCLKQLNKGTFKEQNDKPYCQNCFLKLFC
# UniProt Q9H0H5: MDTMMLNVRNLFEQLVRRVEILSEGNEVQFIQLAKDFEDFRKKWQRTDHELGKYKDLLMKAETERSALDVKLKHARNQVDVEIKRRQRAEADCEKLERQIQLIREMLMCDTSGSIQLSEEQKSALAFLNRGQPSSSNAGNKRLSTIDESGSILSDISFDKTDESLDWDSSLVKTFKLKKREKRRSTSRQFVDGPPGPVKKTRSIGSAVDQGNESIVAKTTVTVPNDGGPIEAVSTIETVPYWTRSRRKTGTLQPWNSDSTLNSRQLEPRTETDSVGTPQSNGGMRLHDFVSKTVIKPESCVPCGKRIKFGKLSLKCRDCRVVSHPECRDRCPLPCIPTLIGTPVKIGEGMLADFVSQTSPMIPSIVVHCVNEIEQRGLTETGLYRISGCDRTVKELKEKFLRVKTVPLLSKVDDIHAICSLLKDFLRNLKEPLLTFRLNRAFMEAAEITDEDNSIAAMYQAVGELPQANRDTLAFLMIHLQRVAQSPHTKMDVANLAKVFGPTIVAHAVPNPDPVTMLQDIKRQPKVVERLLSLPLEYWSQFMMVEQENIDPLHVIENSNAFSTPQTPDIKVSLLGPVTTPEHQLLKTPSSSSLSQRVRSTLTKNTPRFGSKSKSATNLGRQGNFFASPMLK
# UniProt Q96I23: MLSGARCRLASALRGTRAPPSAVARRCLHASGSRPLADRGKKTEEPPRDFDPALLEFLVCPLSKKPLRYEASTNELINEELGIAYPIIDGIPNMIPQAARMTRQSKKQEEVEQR
# UniProt Q7Z6M1: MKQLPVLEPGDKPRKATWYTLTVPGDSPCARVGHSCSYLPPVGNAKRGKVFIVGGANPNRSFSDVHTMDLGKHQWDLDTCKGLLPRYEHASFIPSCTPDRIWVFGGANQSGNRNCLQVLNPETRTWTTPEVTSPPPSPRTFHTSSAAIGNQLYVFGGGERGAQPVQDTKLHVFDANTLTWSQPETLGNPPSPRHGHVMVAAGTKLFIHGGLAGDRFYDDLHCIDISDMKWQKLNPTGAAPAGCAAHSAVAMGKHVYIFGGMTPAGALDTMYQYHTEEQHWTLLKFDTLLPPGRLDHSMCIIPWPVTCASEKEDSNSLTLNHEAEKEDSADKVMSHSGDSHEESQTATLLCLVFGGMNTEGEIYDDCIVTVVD
# UniProt P20338: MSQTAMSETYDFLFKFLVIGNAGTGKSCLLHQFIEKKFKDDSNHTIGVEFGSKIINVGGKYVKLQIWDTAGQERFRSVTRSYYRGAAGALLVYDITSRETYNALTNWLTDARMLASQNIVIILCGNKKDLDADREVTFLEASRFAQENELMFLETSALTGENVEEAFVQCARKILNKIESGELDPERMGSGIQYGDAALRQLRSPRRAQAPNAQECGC
# UniProt Q9H974: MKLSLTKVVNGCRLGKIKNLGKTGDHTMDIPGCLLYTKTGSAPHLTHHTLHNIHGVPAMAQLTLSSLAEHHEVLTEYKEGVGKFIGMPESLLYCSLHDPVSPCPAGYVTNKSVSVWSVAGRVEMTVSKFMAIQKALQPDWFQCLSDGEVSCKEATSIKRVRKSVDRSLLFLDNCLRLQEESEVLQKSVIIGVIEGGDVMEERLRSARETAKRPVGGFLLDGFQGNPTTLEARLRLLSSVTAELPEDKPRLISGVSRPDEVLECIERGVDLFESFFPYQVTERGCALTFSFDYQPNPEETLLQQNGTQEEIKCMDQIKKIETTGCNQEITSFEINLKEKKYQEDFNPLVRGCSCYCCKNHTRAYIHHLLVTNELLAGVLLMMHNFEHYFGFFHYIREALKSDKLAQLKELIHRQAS
# UniProt Q53H96: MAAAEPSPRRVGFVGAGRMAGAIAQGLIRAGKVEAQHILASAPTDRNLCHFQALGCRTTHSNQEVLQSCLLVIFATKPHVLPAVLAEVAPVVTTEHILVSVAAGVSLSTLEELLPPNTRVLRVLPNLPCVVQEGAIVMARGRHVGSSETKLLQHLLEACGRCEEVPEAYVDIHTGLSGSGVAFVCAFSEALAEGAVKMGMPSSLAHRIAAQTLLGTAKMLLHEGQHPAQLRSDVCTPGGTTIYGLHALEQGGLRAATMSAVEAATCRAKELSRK
# UniProt Q9H2M9: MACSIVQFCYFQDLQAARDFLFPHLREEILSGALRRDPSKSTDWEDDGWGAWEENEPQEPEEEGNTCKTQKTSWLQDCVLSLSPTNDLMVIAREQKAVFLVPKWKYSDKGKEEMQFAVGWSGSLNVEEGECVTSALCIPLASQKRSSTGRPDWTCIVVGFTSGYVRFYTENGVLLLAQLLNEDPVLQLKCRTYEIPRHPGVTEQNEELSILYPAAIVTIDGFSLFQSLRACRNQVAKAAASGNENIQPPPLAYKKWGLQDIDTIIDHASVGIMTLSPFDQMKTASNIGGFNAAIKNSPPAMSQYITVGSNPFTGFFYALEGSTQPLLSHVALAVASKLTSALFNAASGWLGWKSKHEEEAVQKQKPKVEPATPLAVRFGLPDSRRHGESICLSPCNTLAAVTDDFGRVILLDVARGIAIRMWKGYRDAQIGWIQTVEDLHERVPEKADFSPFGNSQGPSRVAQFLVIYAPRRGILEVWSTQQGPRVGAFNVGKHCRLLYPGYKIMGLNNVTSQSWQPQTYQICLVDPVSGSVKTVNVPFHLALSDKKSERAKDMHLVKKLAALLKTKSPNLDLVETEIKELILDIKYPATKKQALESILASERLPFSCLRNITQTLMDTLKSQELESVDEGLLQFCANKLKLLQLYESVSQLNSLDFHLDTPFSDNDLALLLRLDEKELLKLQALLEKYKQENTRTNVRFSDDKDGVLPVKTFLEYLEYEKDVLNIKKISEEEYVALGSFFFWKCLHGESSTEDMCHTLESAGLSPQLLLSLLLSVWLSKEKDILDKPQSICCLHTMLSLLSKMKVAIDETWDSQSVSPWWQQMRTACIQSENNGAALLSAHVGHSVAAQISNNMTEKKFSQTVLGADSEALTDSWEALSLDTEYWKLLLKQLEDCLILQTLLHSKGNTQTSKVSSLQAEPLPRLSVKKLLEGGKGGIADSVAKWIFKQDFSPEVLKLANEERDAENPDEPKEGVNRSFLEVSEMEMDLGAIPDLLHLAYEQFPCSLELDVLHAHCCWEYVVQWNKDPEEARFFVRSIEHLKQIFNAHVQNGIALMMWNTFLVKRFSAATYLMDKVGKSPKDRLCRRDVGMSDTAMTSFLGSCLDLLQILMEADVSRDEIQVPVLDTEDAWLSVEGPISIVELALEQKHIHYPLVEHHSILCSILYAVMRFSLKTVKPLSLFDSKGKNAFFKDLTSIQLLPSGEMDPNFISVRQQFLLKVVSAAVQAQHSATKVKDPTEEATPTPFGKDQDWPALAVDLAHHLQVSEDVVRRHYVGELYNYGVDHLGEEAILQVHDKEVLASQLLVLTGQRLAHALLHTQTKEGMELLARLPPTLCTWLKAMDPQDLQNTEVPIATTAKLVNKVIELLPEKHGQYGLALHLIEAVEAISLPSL
# UniProt P47897: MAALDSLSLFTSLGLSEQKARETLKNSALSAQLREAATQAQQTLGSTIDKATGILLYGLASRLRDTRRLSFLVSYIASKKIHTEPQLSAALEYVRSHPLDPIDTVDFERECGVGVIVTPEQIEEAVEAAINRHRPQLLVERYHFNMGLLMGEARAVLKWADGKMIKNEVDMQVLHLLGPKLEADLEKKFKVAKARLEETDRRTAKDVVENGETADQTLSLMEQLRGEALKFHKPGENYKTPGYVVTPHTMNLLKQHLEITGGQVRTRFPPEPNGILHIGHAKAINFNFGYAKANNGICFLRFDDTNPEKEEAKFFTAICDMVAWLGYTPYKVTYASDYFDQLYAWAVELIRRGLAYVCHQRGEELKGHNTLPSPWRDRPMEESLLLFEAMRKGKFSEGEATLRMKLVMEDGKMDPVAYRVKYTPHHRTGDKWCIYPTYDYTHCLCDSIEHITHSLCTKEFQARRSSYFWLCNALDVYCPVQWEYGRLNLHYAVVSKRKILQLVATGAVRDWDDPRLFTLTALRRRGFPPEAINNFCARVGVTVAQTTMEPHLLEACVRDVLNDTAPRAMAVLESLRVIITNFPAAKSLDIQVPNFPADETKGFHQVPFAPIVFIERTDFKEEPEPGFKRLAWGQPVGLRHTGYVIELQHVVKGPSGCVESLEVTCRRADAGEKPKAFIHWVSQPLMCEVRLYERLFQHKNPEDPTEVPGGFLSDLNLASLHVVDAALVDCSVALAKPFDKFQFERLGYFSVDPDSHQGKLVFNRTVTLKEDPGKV
# UniProt Q9Y3T6: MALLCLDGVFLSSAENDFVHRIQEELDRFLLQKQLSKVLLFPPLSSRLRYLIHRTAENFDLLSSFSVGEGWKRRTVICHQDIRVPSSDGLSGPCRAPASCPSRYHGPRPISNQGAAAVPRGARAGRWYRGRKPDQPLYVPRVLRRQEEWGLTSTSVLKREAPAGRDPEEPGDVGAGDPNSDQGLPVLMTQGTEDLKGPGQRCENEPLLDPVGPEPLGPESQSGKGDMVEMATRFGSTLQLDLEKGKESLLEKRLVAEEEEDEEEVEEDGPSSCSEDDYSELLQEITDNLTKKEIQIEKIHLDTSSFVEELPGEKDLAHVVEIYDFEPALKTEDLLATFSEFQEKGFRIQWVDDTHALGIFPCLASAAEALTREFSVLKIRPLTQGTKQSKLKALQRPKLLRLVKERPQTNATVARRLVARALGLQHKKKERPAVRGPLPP
# UniProt Q15269: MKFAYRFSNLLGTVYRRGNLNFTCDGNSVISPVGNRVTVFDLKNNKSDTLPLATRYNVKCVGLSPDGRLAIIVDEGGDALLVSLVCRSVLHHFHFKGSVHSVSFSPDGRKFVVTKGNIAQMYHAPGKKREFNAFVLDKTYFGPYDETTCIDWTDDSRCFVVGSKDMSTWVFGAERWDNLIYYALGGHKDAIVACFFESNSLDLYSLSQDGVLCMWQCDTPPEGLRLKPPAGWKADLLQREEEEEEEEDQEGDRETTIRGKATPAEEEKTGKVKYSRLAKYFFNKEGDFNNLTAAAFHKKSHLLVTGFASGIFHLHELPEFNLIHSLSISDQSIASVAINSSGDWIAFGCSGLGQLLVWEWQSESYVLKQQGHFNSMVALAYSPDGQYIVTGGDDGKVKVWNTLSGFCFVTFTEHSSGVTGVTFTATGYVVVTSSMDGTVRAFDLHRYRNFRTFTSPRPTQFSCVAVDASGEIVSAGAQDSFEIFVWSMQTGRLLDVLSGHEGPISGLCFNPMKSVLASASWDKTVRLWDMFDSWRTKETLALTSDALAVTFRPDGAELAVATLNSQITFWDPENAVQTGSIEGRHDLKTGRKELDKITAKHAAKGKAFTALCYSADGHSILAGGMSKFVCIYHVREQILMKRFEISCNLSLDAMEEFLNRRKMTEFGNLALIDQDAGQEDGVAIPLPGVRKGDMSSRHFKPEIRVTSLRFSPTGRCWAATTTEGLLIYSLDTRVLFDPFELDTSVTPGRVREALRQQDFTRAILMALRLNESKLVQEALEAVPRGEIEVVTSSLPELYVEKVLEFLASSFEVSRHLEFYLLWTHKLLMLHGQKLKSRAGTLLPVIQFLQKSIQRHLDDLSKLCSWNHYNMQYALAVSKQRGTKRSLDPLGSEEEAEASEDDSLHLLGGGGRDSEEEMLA
# UniProt Q96D70: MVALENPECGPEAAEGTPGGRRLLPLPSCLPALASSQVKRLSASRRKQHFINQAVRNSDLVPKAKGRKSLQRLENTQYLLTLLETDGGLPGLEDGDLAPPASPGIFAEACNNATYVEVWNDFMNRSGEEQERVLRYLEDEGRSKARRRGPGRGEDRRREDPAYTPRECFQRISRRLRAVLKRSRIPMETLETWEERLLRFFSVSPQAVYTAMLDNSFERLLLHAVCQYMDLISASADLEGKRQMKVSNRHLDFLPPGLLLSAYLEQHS
# Some of the results follow.
# Compound: Cc1cc(ccc1-c1ccccc1)C(=O)N1CCCN(CC1)C(=O)CCl [compound 10]
# Test: probe-labelled cysteine peptide fold change vs DMSO (competition) (log2 fold change); higher = less target engagement (more negative = stronger competition)
# Details: 10 µM; THP-1; incubation time: 4 h
# 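Also: competitive profiling in live THP-1 cells: cysteine peptides tagged with an iodoacetamide desthiobiotin (IA-DTB) probe, intensity after compound treatment relative to DMSO-treated cells.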
row,Target,probe-labelled cysteine peptide fold change
1,RAB29_O14966_120_LTLPNGEPVPCLLLANK (UniProt O14966),-0.176
2,RAD54L2_Q9Y4B4_1143_MAASGSQGPSCESTSNGR (UniProt Q9Y4B4),-0.204
3,PXN_P49023_505+523_ECFTPFVNGSFFEHDGQPYCEVHYHER (UniProt P49023),0.194
4,QSER1_Q2KHR3_1709_KNEDLGQEEIVQLCMK (UniProt Q2KHR3),0.0157
5,RAB21_Q9UL25_29_VVLLGEGCVGK (UniProt Q9UL25),0.0214
6,RACGAP1_Q9H0H5_93_QRAEADCEK (UniProt Q9H0H5),0.258
7,RACK1_P63244_138_LWNTLGVCK (UniProt P63244),0.105
8,RAC2_P15153_178_AVLCPQPTR (UniProt P15153),-0.00784
9,PYURF_Q96I23_60_KTEEPPRDFDPALLEFLVCPLSK (UniProt Q96I23),0.0128
10,UniProt Q8N1Y9_Q8N1Y9_79_GCLPGK,-0.245
11,RAI14_Q9P0K7_168_DLDGNIPLLLAVQNGHSEICHFLLDHGADVNSR (UniProt Q9P0K7),0.337
12,RAB18_Q9NP72_155_TCDGVQCAFEELVEK (UniProt Q9NP72),-0.252
13,PXN_P49023_564_KFHPEHFVCAFCLK (UniProt P49023),-0.0109
14,RAD50_Q92878_102_SMVCTQK (UniProt Q92878),0.0795
15,RACK1_P63244_168_FSPNSSNPIIVSCGWDK (UniProt P63244),0.00306
16,RABEPK_Q7Z6M1_29_ATWYTLTVPGDSPCAR (UniProt Q7Z6M1),-0.158
17,RABGGTA_Q92696_516_LQELLLCNNR (UniProt Q92696),-0.0554
18,PYGB_P11216_808_NIACSGK (UniProt P11216),-0.00679
19,PXK_Q7Z7A4_196_DFQCLIK (UniProt Q7Z7A4),0.101
20,RAB4A_P20338_28_SCLLHQFIEK (UniProt P20338),-0.145

row,Target,probe-labelled cysteine peptide fold change
1,PWWP2B_Q6NUJ5_480_LHTQSVSECITEDGR (UniProt Q6NUJ5),0.0945
2,QTRT2_Q9H974_312_CMDQIK (UniProt Q9H974),-0.276
3,RAB3D_O95716_137_CDLEDERVVPAEDGR (UniProt O95716),0.0743
4,PYCR3_Q53H96_129_VLPNLPCVVQEGAIVMAR (UniProt Q53H96),0.217
5,RAB3GAP2_Q9H2M9_793_DILDKPQSICCLHTMLSLLSK (UniProt Q9H2M9),-0.128
6,QARS_P47897_445_WCIYPTYDYTHCLCDSIEHITHSLCTK (UniProt P47897),0.0467
7,RABEP1_Q15276_734_ENLEETLQLEIENCK (UniProt Q15276),-0.102
8,RAB3GAP1_Q15042_510+511_CCLLHQK (UniProt Q15042),-0.058
9,R3HCC1L_Q7Z5L2_665_VFCSYQK (UniProt Q7Z5L2),0.0217
10,RAB3GAP1_Q15042_272_LPFGACEDPISELHLATTWPHLTEGIIVDNDVYSDLDPIQAPHWSVR (UniProt Q15042),0.292
11,RAB18_Q9NP72_155+160_TCDGVQCAFEELVEK (UniProt Q9NP72),-0.245
12,R3HCC1_Q9Y3T6_94_VPSSDGLSGPCR (UniProt Q9Y3T6+R3HCC1),0.108
13,RAD21_O60216_392_CLTPLVPEDLR (UniProt O60216),0.12
14,PWWP2A_Q96N64_233_CEANGAVPDDPSPVPHPELSLAESLWTSKPPPLFHEGAPYPPPLFIR (UniProt Q96N64),-0.0763
15,RABGGTA_Q92696_99_AELGFLESCLR (UniProt Q92696),-0.0439
16,RABGGTA_Q92696_145_NFHCWDYR (UniProt Q92696),0.0322
17,PWP2_Q15269_647_RFEISCNLSLDAMEEFLNR (UniProt Q15269),0.232
18,RAC3_P60763_105_HHCPHTPILLVGTK (UniProt P60763),0.0151
19,QARS_P47897_687_AFIHWVSQPLMCEVR (UniProt P47897),0.143
20,R3HDM4_Q96D70_29_LLPLPSCLPALASSQVK (UniProt Q96D70),-0.0312

# Same assay, conditions: 50 µM; THP-1; incubation time: 4 h
row,Target,probe-labelled cysteine peptide fold change
1,RAB29_O14966_120_LTLPNGEPVPCLLLANK (UniProt O14966),0.0583
2,RAD54L2_Q9Y4B4_1143_MAASGSQGPSCESTSNGR (UniProt Q9Y4B4),-0.485
3,PXN_P49023_505+523_ECFTPFVNGSFFEHDGQPYCEVHYHER (UniProt P49023),-0.262
4,QSER1_Q2KHR3_1709_KNEDLGQEEIVQLCMK (UniProt Q2KHR3),0.0248
5,RAB21_Q9UL25_29_VVLLGEGCVGK (UniProt Q9UL25),0.285
6,RACGAP1_Q9H0H5_93_QRAEADCEK (UniProt Q9H0H5),0.278
7,RACK1_P63244_138_LWNTLGVCK (UniProt P63244),0.057
8,RAC2_P15153_178_AVLCPQPTR (UniProt P15153),-0.117
9,PYURF_Q96I23_60_KTEEPPRDFDPALLEFLVCPLSK (UniProt Q96I23),-0.357
10,UniProt Q8N1Y9_Q8N1Y9_79_GCLPGK,-0.0312
11,RAI14_Q9P0K7_168_DLDGNIPLLLAVQNGHSEICHFLLDHGADVNSR (UniProt Q9P0K7),-0.107
12,RAB18_Q9NP72_155_TCDGVQCAFEELVEK (UniProt Q9NP72),-0.18
13,PXN_P49023_564_KFHPEHFVCAFCLK (UniProt P49023),-0.654
14,RAD50_Q92878_102_SMVCTQK (UniProt Q92878),0.0477
15,RACK1_P63244_168_FSPNSSNPIIVSCGWDK (UniProt P63244),0.0164
16,RABEPK_Q7Z6M1_29_ATWYTLTVPGDSPCAR (UniProt Q7Z6M1),0.067
17,RABGGTA_Q92696_516_LQELLLCNNR (UniProt Q92696),-0.0882
18,PYGB_P11216_808_NIACSGK (UniProt P11216),0.0547
19,PXK_Q7Z7A4_196_DFQCLIK (UniProt Q7Z7A4),-0.2
20,RAB4A_P20338_28_SCLLHQFIEK (UniProt P20338),-0.0658

row,Target,probe-labelled cysteine peptide fold change
1,PWWP2B_Q6NUJ5_480_LHTQSVSECITEDGR (UniProt Q6NUJ5),0.00287
2,QTRT2_Q9H974_312_CMDQIK (UniProt Q9H974),-0.451
3,RAB3D_O95716_137_CDLEDERVVPAEDGR (UniProt O95716),0.204
4,PYCR3_Q53H96_129_VLPNLPCVVQEGAIVMAR (UniProt Q53H96),0.181
5,RAB3GAP2_Q9H2M9_793_DILDKPQSICCLHTMLSLLSK (UniProt Q9H2M9),-0.2
6,QARS_P47897_445_WCIYPTYDYTHCLCDSIEHITHSLCTK (UniProt P47897),0.0154
7,RABEP1_Q15276_734_ENLEETLQLEIENCK (UniProt Q15276),0.0212
8,RAB3GAP1_Q15042_510+511_CCLLHQK (UniProt Q15042),-0.671
9,R3HCC1L_Q7Z5L2_665_VFCSYQK (UniProt Q7Z5L2),-0.498
10,RAB3GAP1_Q15042_272_LPFGACEDPISELHLATTWPHLTEGIIVDNDVYSDLDPIQAPHWSVR (UniProt Q15042),-0.041
11,RAB18_Q9NP72_155+160_TCDGVQCAFEELVEK (UniProt Q9NP72),-0.566
12,R3HCC1_Q9Y3T6_94_VPSSDGLSGPCR (UniProt Q9Y3T6+R3HCC1),-0.0791
13,RAD21_O60216_392_CLTPLVPEDLR (UniProt O60216),0.15
14,PWWP2A_Q96N64_233_CEANGAVPDDPSPVPHPELSLAESLWTSKPPPLFHEGAPYPPPLFIR (UniProt Q96N64),-0.294
15,RABGGTA_Q92696_99_AELGFLESCLR (UniProt Q92696),-0.225
16,RABGGTA_Q92696_145_NFHCWDYR (UniProt Q92696),0.248
17,PWP2_Q15269_647_RFEISCNLSLDAMEEFLNR (UniProt Q15269),0.365
18,RAC3_P60763_105_HHCPHTPILLVGTK (UniProt P60763),-0.219
19,QARS_P47897_687_AFIHWVSQPLMCEVR (UniProt P47897),-0.0311
20,R3HDM4_Q96D70_29_LLPLPSCLPALASSQVK (UniProt Q96D70),-0.0832
